According to publication PMC12094199 (Science Advances, 2025):

System: A549 cells
Assay: Cell survival assay
Type: cell-based
Settings: Homo sapiens, A549, 48 h, read-out: IC50 (cytotoxicity)

CC(=O)O[C@H]1C(=O)[C@@]2(C)[C@H]([C@H](OC(=O)c3ccccc3)[C@]3(O)C[C@H](OC(=O)[C@H](O)[C@@H](NC(=O)c4ccccc4)c4ccccc4)C(C)=C1C3(C)C)[C@]1(OC(C)=O)CO[C@@H]1C[C@@H]2O [PTX, paclitaxel] showed an IC50 of 7.5 ± 2.4 nM.
